Experimental findings from article PMC3862036 are described below.

Results are given in words; binding and its absence hold for the method and conditions named. For some of these results: A result given as binding can be weak or reduced; the word gives no strength.

Holding throughout (assay): two-hybrid; yeast; BET-1 full length or fragments as pLexA-NLS baits, SMO-1 or UBC-9 as pACT preys; six serial 1:5 dilutions spotted on CSM-Leu-Trp and CSM-Leu-Trp-His, 30°C, 72 hours
Experiment [1] addresses BET-1 second bromodomain fragment, lysine 276 mutated into arginine (C. elegans).
Experiment [2] concerns the target BET-1 peptide covering the second bromodomain (C. elegans).
Experiment [3] deals with BET-1 second bromodomain fragment, lysine 304 mutated into arginine (C. elegans).
The target in experiment [4] is BET-1 second bromodomain fragment, lysine 277 mutated into arginine (C. elegans).
In experiment [5] the target is BET-1 second bromodomain fragment, lysine 253 mutated into arginine (C. elegans).
Experiment [6] deals with BET-1 second bromodomain fragment, lysine 313 mutated into arginine (C. elegans).
Experiment [7] concerns the target BET-1 second bromodomain fragment, lysine 252 mutated into arginine (C. elegans).
In experiment [8] the target is BET-1 fragment containing the extra terminal domain (C. elegans).
Experiment [9] deals with BET-1 second bromodomain fragment, lysine 264 mutated into arginine (C. elegans).
For experiment [10], the target named is BET-1 second bromodomain fragment, lysine 315 mutated into arginine (C. elegans).

B1: UBC-9 (enzyme, UniProt Q95017 1-166)
chain: MSGIAAGRLAEERKHWRKDHPFGFIAKPVKNADGTLNLFNWECAIPGRKDTIWEGGLYRIRMLFKDDFPSTPPKCKFEPPLFHPNVYPSGTVCLSLLDENKDWKPSISIKQLLIGIQDLLNHPNIEDPAQAEAYQIYCQNRAEYEKRVKKEAVKYAAELVQKQMLE
For the molecule B1, the binding result in experiment [1], in experiment [2], in experiment [3], in experiment [4], in [5] and in [6] was “binds” in each case. The binding result was “no binding” in experiment [7], “no binding” in [8], “binds” in [9] and “binds” in experiment [10].
